Test results: US10168342B2, “Lipid probes and uses thereof” (THE SCRIPPS RESEARCH INSTITUTE, priority 2015, dated 2019)

Columns and labels:
[1] = system: lipid-binding proteins in HEK293T cells; assay: SILAC MS mapping of lipid probe targets (probe-versus-No UV, probe-versus-probe) in HEK293T cells; format: cell-based, human; details: HEK293T and Neuro2a cells combined
[2] = system: sterol-binding proteins in HeLa cells; assay: SILAC MS-based profiling of sterol-binding proteins in HeLa cells; format: cell-based, human

Q: With C#CCCC/C=C\C/C=C\C/C=C\C/C=C\CCCC(=O)NCCC1(C)N=N1 [A-DA, (5Z,8Z,11Z,14Z)-N-(2-(3-methyl-3H-diazirin-3-yl)ethyl)icosa-5,8,11,14-tetraen-19-ynamide] as the compound, how does the “number of probe-specific targets” value [1] read?
A: 317

Q: How did the “number of probe-specific targets” value [1] turn out when C#CCCCC1(CC/C=C\C/C=C\C/C=C\CCCC(=O)NCCO)N=N1 [AEA-DA, (5Z,8Z,11Z)-N-(2-hydroxyethyl)-14-(3-(pent-4-yn-1-yl)-3H-diazirin-3-yl)tetradeca-5,8,11-trienamide] was run?
A: 442

Q: For CC(C)CCC[C@@H](C)[C@H]1CC[C@H]2[C@@H]3CC=C4C[C@@H](O)CC[C@]4(C)[C@H]3CC[C@]12C [cholesterol, reference compound], which “number of proteins with at least a 50% decrease in trans-sterol probe labeling intensity” value ([2]; trans probe 10 μM, cholesterol 100 μM (10×)) is on record?
A: about 300

Q: How did the “number of proteins with ≥3-fold higher signals for trans-sterol probe over PEA-DA” value ([2]; 20 μM each) turn out when C#CCCCCOC(=O)CC[C@@H](C)[C@H]1CCC2C3CC4(N=N4)[C@H]4C[C@@H](O)CC[C@]4(C)C3CC[C@@]21C (stereo partly drawn) [trans-sterol probe, (4R)-hex-5-yn-1-yl 4-((3S,5S,10R,13R,17R)-3-hydroxy-10,13-dimethyl-1,2,3,4,5,7,8,9,10,11,12,13,14,15,16,17-hexadecahydrospiro[cyclopenta[a]phenanthrene-6,3′-diazirin]-17-yl)pentanoate] was run?
A: about 700

Q: What about the “number of sterol-interacting proteins (SILAC ratios ≥5 vs vehicle and no-UV)” value ([2]; probe 20 μM) of the same compound?
A: About 850
